This note sets out measurements from paper PMC6549480.

Chains of the proteins cited; added tags and fusions are not shown.
UniProt O43242: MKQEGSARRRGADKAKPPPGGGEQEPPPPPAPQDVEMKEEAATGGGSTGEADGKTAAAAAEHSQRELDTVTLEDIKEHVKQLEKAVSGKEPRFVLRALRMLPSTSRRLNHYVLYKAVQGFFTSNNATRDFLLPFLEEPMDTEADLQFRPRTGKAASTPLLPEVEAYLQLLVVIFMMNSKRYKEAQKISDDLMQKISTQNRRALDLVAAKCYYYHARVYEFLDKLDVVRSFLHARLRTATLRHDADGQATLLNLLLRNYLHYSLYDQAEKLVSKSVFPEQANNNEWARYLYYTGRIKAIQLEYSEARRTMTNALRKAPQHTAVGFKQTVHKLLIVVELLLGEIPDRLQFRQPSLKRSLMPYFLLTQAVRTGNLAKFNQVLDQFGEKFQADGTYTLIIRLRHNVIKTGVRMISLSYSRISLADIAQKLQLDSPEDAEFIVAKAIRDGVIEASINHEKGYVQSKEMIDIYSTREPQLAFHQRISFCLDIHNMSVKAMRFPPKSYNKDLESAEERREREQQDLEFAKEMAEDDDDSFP

No constants are given. Whether binding was seen depends on the method and setting. In cells and extracts the contact can be indirect. Some entries that bind do so weakly or less than the wild type.

Assay [1] concerns the target Proteasome 26S subunit, non-ATPase 3 (PSMD3) (human (endogenous in BT-474, SKBR3, HCC1419)) (UniProt O43242). In words: co-IP; total cell lysates (0.8-1 mg) of HER2+ cells (BT-474, SKBR3, HCC1419), precleared, incubated with PSMD3 or HER2 antibody overnight at 4 °C, protein A or G agarose beads, IgG as negative control; Western blot with anti-PSMD3 or anti-HER2.
Assay [2] has as its target Human epidermal growth factor receptor 2 (HER2) (human (endogenous in BT-474, SKBR3, HCC1419)) (UniProt P04626). Described as above.
For assay [3] the target is unchanged. In words: FRET or BRET; confocal FRET on fixed cells (BT-474, SKBR3, HCC-1419) stained with PSMD3 and HER2 primary antibodies at 4 °C overnight, then secondary antibodies conjugated with Rhodamine (anti-PSMD3) and FITC (anti-HER2) for an hour at room temperature. (BRET reads energy transfer from a luciferase to a nearby fluorophore.)

With “Human epidermal growth factor receptor 2 (HER2) (from UniProt P04626 23-1255)”, the binding entry in assay [1] was “binds”. Turning to “Proteasome 26S subunit, non-ATPase 3 (PSMD3) (from UniProt O43242 1-534)”, the binding entry in assay [2] and in assay [3] was “binds” throughout.
